# Results deposited as PubChem BioAssay AID1224830 (NIAID, 2016)
# Assay: 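Regulators of TLR4 signalling towards TNF-alpha in macrophage-like cells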 (primary screen)
# Cell system: human THP-1 monocytic leukaemia cells, TNF dual-luciferase reporter clone, PMA-differentiated to macrophage-like cells
# Reagent: siRNA pool against human genes, 50 nM
# Timing: LPS for 4 h, given about 3 days after siRNA transfection
# Treatment: bacterial LPS (TLR4 ligand), 10 ng/ml
# Detection: 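Ratio of firefly to renilla light, scaled to the plate median and expressed as a robust z-score per replicate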
# Direction: TNF reporter robust z-score: higher = stronger TNF reporter response to LPS
# Call rule: 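a well is active when its z-score exceeds 2.8 or falls below -1.5; control wells carry no call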
# The deposit covers about 18,000 reagents; this is a random part of them. In the full data, about 2,900 (16%) are marked active. 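Calls are made per well; low scores hint the gene aids the LPS response, high scores that it dampens it.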 Entries without a mark were called inactive. Repeated entries: four replicate wells of each siRNA pool. Reagent sequences are not shown.
Target gene,PubChem SID,TNF reporter robust z-score
TMPRSS9 (transmembrane serine protease 9),SID315464305,-1.03
TMPRSS9 (transmembrane serine protease 9),SID315464305,-0.95
TMPRSS9 (transmembrane serine protease 9),SID315464305,-0.12
TMPRSS9 (transmembrane serine protease 9),SID315464305,-0.52
JAK1 (Janus kinase 1),SID315449581,0.73
JAK1 (Janus kinase 1),SID315449581,0.16
JAK1 (Janus kinase 1),SID315449581,-0.2
JAK1 (Janus kinase 1),SID315449581,1.31
CELSR1 (cadherin EGF LAG seven-pass G-type receptor 1),SID315453427,-0.96
CELSR1 (cadherin EGF LAG seven-pass G-type receptor 1),SID315453427,-0.4
CELSR1 (cadherin EGF LAG seven-pass G-type receptor 1),SID315453427,-0.16
CELSR1 (cadherin EGF LAG seven-pass G-type receptor 1),SID315453427,-0.97
AKR1C2 (aldo-keto reductase family 1 member C2),SID315448269,3.1 (active)
AKR1C2 (aldo-keto reductase family 1 member C2),SID315448269,2.22
AKR1C2 (aldo-keto reductase family 1 member C2),SID315448269,2.35
AKR1C2 (aldo-keto reductase family 1 member C2),SID315448269,3.16 (active)
EYA4 (EYA transcriptional coactivator and phosphatase 4),SID315448553,-0.01
EYA4 (EYA transcriptional coactivator and phosphatase 4),SID315448553,1.69
EYA4 (EYA transcriptional coactivator and phosphatase 4),SID315448553,4.43 (active)
EYA4 (EYA transcriptional coactivator and phosphatase 4),SID315448553,0.69
TNFRSF6B (TNF receptor superfamily member 6b),SID315452806,2.49
TNFRSF6B (TNF receptor superfamily member 6b),SID315452806,3.12 (active)
TNFRSF6B (TNF receptor superfamily member 6b),SID315452806,0.99
TNFRSF6B (TNF receptor superfamily member 6b),SID315452806,1.56
NFIX (nuclear factor I X),SID315450231,-0.64
NFIX (nuclear factor I X),SID315450231,1.12
NFIX (nuclear factor I X),SID315450231,0.23
NFIX (nuclear factor I X),SID315450231,0.51
MYH7B (myosin heavy chain 7B),SID315458519,-1.09
MYH7B (myosin heavy chain 7B),SID315458519,-0.98
MYH7B (myosin heavy chain 7B),SID315458519,-0.52
MYH7B (myosin heavy chain 7B),SID315458519,-0.19
AHSA1 (activator of HSP90 ATPase activity 1),SID315454222,-1.33
AHSA1 (activator of HSP90 ATPase activity 1),SID315454222,-0.84
AHSA1 (activator of HSP90 ATPase activity 1),SID315454222,-0.83
AHSA1 (activator of HSP90 ATPase activity 1),SID315454222,-0.73
ADAM21 (ADAM metallopeptidase domain 21),SID315452794,0.02
ADAM21 (ADAM metallopeptidase domain 21),SID315452794,0.77
ADAM21 (ADAM metallopeptidase domain 21),SID315452794,-0.88
ADAM21 (ADAM metallopeptidase domain 21),SID315452794,-0.44
VPS18 (VPS18 core subunit of CORVET and HOPS complexes),SID315458506,-1.53 (active)
VPS18 (VPS18 core subunit of CORVET and HOPS complexes),SID315458506,-0.12
VPS18 (VPS18 core subunit of CORVET and HOPS complexes),SID315458506,-0.38
VPS18 (VPS18 core subunit of CORVET and HOPS complexes),SID315458506,0.45
PELI1 (pellino E3 ubiquitin protein ligase 1),SID315458307,-1.01
PELI1 (pellino E3 ubiquitin protein ligase 1),SID315458307,-0.73
PELI1 (pellino E3 ubiquitin protein ligase 1),SID315458307,-0.57
PELI1 (pellino E3 ubiquitin protein ligase 1),SID315458307,0.04
ULK3 (unc-51 like kinase 3),SID315455600,-1.09
ULK3 (unc-51 like kinase 3),SID315455600,-0.55
ULK3 (unc-51 like kinase 3),SID315455600,-1.1
ULK3 (unc-51 like kinase 3),SID315455600,-0.25
CLDN1 (claudin 1),SID315453022,-0.27
CLDN1 (claudin 1),SID315453022,1.35
CLDN1 (claudin 1),SID315453022,0.73
CLDN1 (claudin 1),SID315453022,-0.08
MMAA (metabolism of cobalamin associated A),SID315462842,1.46
MMAA (metabolism of cobalamin associated A),SID315462842,0.27
MMAA (metabolism of cobalamin associated A),SID315462842,0.89
MMAA (metabolism of cobalamin associated A),SID315462842,0.63
OR5H6 (olfactory receptor family 5 subfamily H member 6),SID315459264,0.97
OR5H6 (olfactory receptor family 5 subfamily H member 6),SID315459264,2.25
OR5H6 (olfactory receptor family 5 subfamily H member 6),SID315459264,0
OR5H6 (olfactory receptor family 5 subfamily H member 6),SID315459264,0.51
"RELB (RELB proto-oncogene, NF-kB subunit)",SID315451095,-0.53
"RELB (RELB proto-oncogene, NF-kB subunit)",SID315451095,-0.9
"RELB (RELB proto-oncogene, NF-kB subunit)",SID315451095,-0.87
"RELB (RELB proto-oncogene, NF-kB subunit)",SID315451095,-0.46
CYS1 (cystin 1),SID315462945,-1.58 (active)
CYS1 (cystin 1),SID315462945,-1.11
CYS1 (cystin 1),SID315462945,-1.34
CYS1 (cystin 1),SID315462945,-0.68
HECW2,SID315458434,-0.74
HECW2,SID315458434,-0.9
HECW2,SID315458434,-0.32
HECW2,SID315458434,-0.58
SMARCD2 (SWI/SNF related BAF chromatin remodeling complex subunit D2),SID315451531,-0.99
SMARCD2 (SWI/SNF related BAF chromatin remodeling complex subunit D2),SID315451531,0.89
SMARCD2 (SWI/SNF related BAF chromatin remodeling complex subunit D2),SID315451531,0.63
SMARCD2 (SWI/SNF related BAF chromatin remodeling complex subunit D2),SID315451531,1.28
"HRAS (HRas proto-oncogene, GTPase)",SID315449312,11.5 (active)
"HRAS (HRas proto-oncogene, GTPase)",SID315449312,0.27
"HRAS (HRas proto-oncogene, GTPase)",SID315449312,0.5
"HRAS (HRas proto-oncogene, GTPase)",SID315449312,0.33
NYAP1,SID315463360,-0.25
NYAP1,SID315463360,-0.26
NYAP1,SID315463360,-0.41
NYAP1,SID315463360,0.74
LIAS (lipoic acid synthetase),SID315454538,-0.41
LIAS (lipoic acid synthetase),SID315454538,-0.62
LIAS (lipoic acid synthetase),SID315454538,-0.73
LIAS (lipoic acid synthetase),SID315454538,-0.39
PSG5 (pregnancy specific beta-1-glycoprotein 5),SID315450877,-0.7
PSG5 (pregnancy specific beta-1-glycoprotein 5),SID315450877,0.5
PSG5 (pregnancy specific beta-1-glycoprotein 5),SID315450877,-0.07
PSG5 (pregnancy specific beta-1-glycoprotein 5),SID315450877,-0.03
TBXA2R (thromboxane A2 receptor),SID315451774,-1.29
TBXA2R (thromboxane A2 receptor),SID315451774,-0.19
TBXA2R (thromboxane A2 receptor),SID315451774,-0.04
TBXA2R (thromboxane A2 receptor),SID315451774,-0.45
PDE8B (phosphodiesterase 8B),SID315452693,-0.29
PDE8B (phosphodiesterase 8B),SID315452693,0.26
PDE8B (phosphodiesterase 8B),SID315452693,-0.34
PDE8B (phosphodiesterase 8B),SID315452693,0.15
GRK1 (G protein-coupled receptor kinase 1),SID315451131,-0.26
GRK1 (G protein-coupled receptor kinase 1),SID315451131,-0.67
GRK1 (G protein-coupled receptor kinase 1),SID315451131,-0.42
GRK1 (G protein-coupled receptor kinase 1),SID315451131,0.19
MOBP (myelin associated oligodendrocyte basic protein),SID315450018,-1.24
MOBP (myelin associated oligodendrocyte basic protein),SID315450018,-1.04
MOBP (myelin associated oligodendrocyte basic protein),SID315450018,-0.98
MOBP (myelin associated oligodendrocyte basic protein),SID315450018,-0.44
ZFYVE19 (zinc finger FYVE-type containing 19),SID315460588,-1.25
ZFYVE19 (zinc finger FYVE-type containing 19),SID315460588,-0.78
ZFYVE19 (zinc finger FYVE-type containing 19),SID315460588,-1.39
ZFYVE19 (zinc finger FYVE-type containing 19),SID315460588,-1.23
PLA2G12B (phospholipase A2 group XIIB),SID315460436,-0.41
PLA2G12B (phospholipase A2 group XIIB),SID315460436,0.15
PLA2G12B (phospholipase A2 group XIIB),SID315460436,0.49
PLA2G12B (phospholipase A2 group XIIB),SID315460436,1.03
TPO (thyroid peroxidase),SID315451957,-0.26
TPO (thyroid peroxidase),SID315451957,1.3
TPO (thyroid peroxidase),SID315451957,-0.85
TPO (thyroid peroxidase),SID315451957,-0.63
EGR4 (early growth response 4),SID315448465,0.37
EGR4 (early growth response 4),SID315448465,0.58
EGR4 (early growth response 4),SID315448465,0.25
EGR4 (early growth response 4),SID315448465,0.31
DPP6 (dipeptidyl peptidase like 6),SID315448363,-0.63
DPP6 (dipeptidyl peptidase like 6),SID315448363,0.65
DPP6 (dipeptidyl peptidase like 6),SID315448363,-0.1
DPP6 (dipeptidyl peptidase like 6),SID315448363,0.23
HSPA2 (heat shock protein family A (Hsp70) member 2),SID315449340,-0.87
HSPA2 (heat shock protein family A (Hsp70) member 2),SID315449340,-0.36
HSPA2 (heat shock protein family A (Hsp70) member 2),SID315449340,0.17
"COQ6 (coenzyme Q6, monooxygenase)",SID315456394,-0.18
"COQ6 (coenzyme Q6, monooxygenase)",SID315456394,-0.11
"COQ6 (coenzyme Q6, monooxygenase)",SID315456394,-0.29
"COQ6 (coenzyme Q6, monooxygenase)",SID315456394,0.4
SMIM29 (small integral membrane protein 29),SID315463303,0.14
SMIM29 (small integral membrane protein 29),SID315463303,0.41
SMIM29 (small integral membrane protein 29),SID315463303,0.13
SMIM29 (small integral membrane protein 29),SID315463303,0.56

Copied from above, 13 entries:
Target gene,PubChem SID,TNF reporter robust z-score
"HRAS (HRas proto-oncogene, GTPase)",SID315449312,0.33
NYAP1,SID315463360,-0.25
NYAP1,SID315463360,-0.26
NYAP1,SID315463360,-0.41
NYAP1,SID315463360,0.74
LIAS (lipoic acid synthetase),SID315454538,-0.41
LIAS (lipoic acid synthetase),SID315454538,-0.62
LIAS (lipoic acid synthetase),SID315454538,-0.73
LIAS (lipoic acid synthetase),SID315454538,-0.39
PSG5 (pregnancy specific beta-1-glycoprotein 5),SID315450877,-0.7
PSG5 (pregnancy specific beta-1-glycoprotein 5),SID315450877,0.5
PSG5 (pregnancy specific beta-1-glycoprotein 5),SID315450877,-0.07
PSG5 (pregnancy specific beta-1-glycoprotein 5),SID315450877,-0.03
